# Primary screen of a compound library

The values are deposited in ChEMBL (CHEMBL3988442, “University of Dundee, Small-Polar-MMV Screening Library” (2021)).

A: 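Whole-cell assay for inhibitors of Mycobacterium tuberculosis growth, labelled Cornell in the record; the read-out is not stated. The concentration is filed as 10 mM, unlikely as a test dose, so the dose is not known. The record gives no direction; compounds strong in two other growth screens of this library score well above the rest, so higher reads as stronger inhibition. About 53,000 compounds were tested under these conditions; 1.7% (about 900) showed 50% or more at least once.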
B: 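Assay on Mycobacterium tuberculosis, filed only as a heat shock assay from Cornell; the read-out is not stated. The concentration is filed as 10 mM, unlikely as a test dose, so the dose is not known. Direction is inferred from retests: higher values go with stronger inhibition. About 69,000 compounds were tested under these conditions; 1.4% (about 930) showed 50% or more at least once.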

Results are given as percent effect.
The record does not define 0% and 100%; most values in the screen are far below 50% and negative numbers occur (in some assays of this library far below -100).
The compounds are a random part of those screened.
A dash means the value is not listed here; it may have been measured.

Cn1ccnc1CNCC1CCCN1c1cccnn1 (stereo not shown) read B: -5.773%.
O=C(NCCNc1cnccn1)NCC1CCS(=O)(=O)C1 (stereo not shown) read A: 20.88%; B: -8.126%.
CN1CCN(c2ccc(F)cc2NC(=O)NCCn2ccnc2)CC1 read B: -5.29%.
CN(C)CCNC(=O)CCn1ncc2c(Cl)cccc21 read B: -25.64%.
Cc1cc(C)n(CC2CCCN2C(=O)c2cccc(C#N)c2)n1 (stereo not shown) read B: -7.175%.
CCc1nccn1C1CCCN(C(=O)c2ccc(C(=O)NC)nc2)C1 (stereo not shown) read A: 4.365%; B: -2.791%.
Cc1cccc(NC(=O)[C@@H]2CCCN2Cc2nc3ccccc3o2)n1 read A: -91.18%; B: -14.55%.
COc1ncccc1NC(=O)N1CCC(CNC(C)=O)CC1 read A: 32.62%; B: -4.752%.
CC(C(=O)NC(C)(C)C)S(=O)(=O)Cc1noc(C(C)(C)C)n1 (stereo not shown) read A: 0.8111%; B: -7.654%.
Cc1cnc(CNC(=O)NC2CCCN(c3ccccc3F)C2)s1 (stereo not shown) read A: 10.9%; B: -10.56%.
CCNC(=O)[C@@H]1C[C@H](N)CN1C(=O)CCc1ccccc1Cl read A: -1.345%; B: -10.53%.
[H][C@@]12CN(C(=O)NCC)C[C@]1([H])OCC(=O)N2C(C)C read A: -15.89%; B: 6.214%.
Cc1cc(CNC(=O)C(c2ccc(F)cc2)N(C)C)n[nH]1 (stereo not shown) read A: -24.82%; B: -2.828%.
CNc1ncc(CN(C)c2ncnc3onc(C)c23)cn1 read A: 2.964%; B: -24.03%.
COCC(=O)Nc1ccc(C)cc1-c1nc(C2CC2)no1 read A: 27.88%; B: -9.344%.
CN(C)Cc1ccccc1Cn1cncc1-c1cnn(C)c1 read A: 17.51%; B: 3.264%.
Cc1nc(C(NC(=O)C2CCCC2)c2ccccc2F)no1 (stereo not shown) read B: -11.24%.
O=C1N(CCCc2ccccc2)CCCC1(O)CNCc1ccccc1 (stereo not shown) read A: 28.15%; B: -3.776%.
Cc1c(C(=O)NCC(C)C)nnn1-c1cccc2c1CCN(C(C)C)C2 read A: 1.838%; B: -7.895%.
[H][C@]12CCCN(S(=O)(=O)c3ccc(Cl)s3)[C@@]1([H])CN(C(C)=O)C2 read A: -71.76%; B: -28.33%.
O=C(CSc1ccc2c(c1)OCCO2)NS(=O)(=O)c1ccccc1 read A: -21.47%; B: -1.925%.
CC(=O)N1CCN(CCNS(=O)(=O)c2cc(F)cc(F)c2)CC1 read A: 31.18%; B: 17.06%.
CN1[C@@H](c2ccccc2)[C@@H](C(=O)NCc2ccccn2)C[C@@]1(C)C(=O)O read A: 15.68%; B: -14.45%.
CCOc1cc2c(cc1C(=O)O)CCC2 read A: 21.64%; B: -5.373%.
CS(=O)(=O)CCCSCc1ccc(Br)c(F)c1 read A: -6.341%; B: -1.384%.
O=C(CC(F)(F)F)N1CCC2(CCCN(c3nncs3)C2)C1 (stereo not shown) read A: -50.03%; B: 12.34%.
COCCN(CCC#N)S(=O)(=O)c1cc(F)cc(F)c1 read B: -15.9%.
Cl.[H][C@@]12CN(C3CCCCC3)CC[C@]1([H])N(C(=O)C1CCC1)C[C@H]2c1ccsc1 read A: -2.671%; B: -50.24%.
CC(C)c1nn(C)c(N(C)C)c1CNC(C)c1ccccc1F (stereo not shown) read A: 7.74%; B: -5.289%.
CCn1cc(CNC2CCN(c3cccc(Cl)c3)C2)cn1 (stereo not shown) read A: 23.83%; B: -6.029%.
Cc1ccc(NC(=O)C2CSCN2C(=O)c2cnccn2)c(C)c1 (stereo not shown) read A: 13.79%; B: 11.92%.
CC(CNC(=O)c1ccc(Cl)cc1F)N1CCN(C)CC1 (stereo not shown) read B: 1.032%.
NC(=O)NCC1CCCCN1Cc1nc(-c2ccco2)no1 (stereo not shown) read A: 6.732%; B: -6.57%.
CO[C@H]1CN(Cc2c(C)ccc3ncccc23)CC[C@H]1N read A: 36.7%; B: -12.21%.
CCC1(O)CCCN(c2nc(C(C)(C)C)nc3c2cnn3C)C1 (stereo not shown) read A: 38.7%; B: 8.899%.
CCCN(Cc1ccccc1O)S(=O)(=O)N(C)CC read A: 6.887%; B: -36.81%.
COC(=O)c1ccoc1CN(C)Cc1ccccc1 read B: -6.921%.
O=C(c1cn(-c2cc(N3CCOCC3)ncn2)cn1)N1CCSCC1 read A: 2.606%; B: 6.356%.
O=c1c2c(ncn1CCCO)nc1n2CCC1 read B: -15.12%.
CCN(CC)CC1CN(CCc2ccccc2)Cc2nccn2C1.O=C(O)C(F)(F)F.O=C(O)C(F)(F)F (stereo not shown) read A: 26.04%; B: -39.92%.
O=C(O)C(F)(F)F.[H][C@@]12OCCC[C@]1([H])N(S(=O)(=O)CC)C[C@H]2OCc1ccccn1 read A: -15.49%; B: -14.72%.
CCCN(CCC)Cc1nnsc1Cl read A: -6.183%; B: 7.246%.
O=C(O)C(F)(F)F.[H][C@]12CN(C(=O)c3cncc(C)c3)C[C@@]1([H])OCCN(S(C)(=O)=O)C2 read A: -25.56%; B: 15.78%.
NCC1Cc2cccc(-c3ccc(O)c(F)c3)c2O1 (stereo not shown) read B: -8.538%.
Cc1n[nH]c(C)c1CCN(C)C(=O)c1ccc(CCC(C)(C)O)cc1 read A: 1.979%; B: 1.913%.

The last 4 entries again:

compound	A	B
CCCN(CCC)Cc1nnsc1Cl	-6.183	7.246
O=C(O)C(F)(F)F.[H][C@]12CN(C(=O)c3cncc(C)c3)C[C@@]1([H])OCCN(S(C)(=O)=O)C2	-25.56	15.78
NCC1Cc2cccc(-c3ccc(O)c(F)c3)c2O1 (stereo not shown)	-	-8.538
Cc1n[nH]c(C)c1CCN(C)C(=O)c1ccc(CCC(C)(C)O)cc1	1.979	1.913